Experimental data from the supplement of paper PMC7666118.
The other results are listed elsewhere or left out.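 How the source made its calls: active = dose-dependent thermal stabilisation significant by F-test of dose-response against flat model at 10% FDR; inactive = not significant.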

Sequences of proteins named here, by UniProt entry; tags and fusion partners are left off. A change or cut given only in a name is not applied to a line headed by its entry.
UniProt Q9UHC7: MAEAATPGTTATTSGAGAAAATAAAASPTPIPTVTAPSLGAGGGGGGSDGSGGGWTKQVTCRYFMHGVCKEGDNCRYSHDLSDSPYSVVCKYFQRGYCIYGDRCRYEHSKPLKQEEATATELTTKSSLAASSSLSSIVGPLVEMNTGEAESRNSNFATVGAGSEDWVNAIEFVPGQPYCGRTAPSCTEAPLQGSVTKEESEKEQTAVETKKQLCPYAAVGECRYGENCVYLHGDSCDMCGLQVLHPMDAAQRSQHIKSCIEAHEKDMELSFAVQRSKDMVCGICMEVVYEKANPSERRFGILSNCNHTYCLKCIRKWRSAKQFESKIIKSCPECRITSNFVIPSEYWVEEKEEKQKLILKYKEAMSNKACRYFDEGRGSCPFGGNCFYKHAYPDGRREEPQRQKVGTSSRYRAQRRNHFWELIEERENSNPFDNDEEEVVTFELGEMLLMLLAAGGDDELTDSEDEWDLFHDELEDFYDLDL
UniProt Q6ZN04: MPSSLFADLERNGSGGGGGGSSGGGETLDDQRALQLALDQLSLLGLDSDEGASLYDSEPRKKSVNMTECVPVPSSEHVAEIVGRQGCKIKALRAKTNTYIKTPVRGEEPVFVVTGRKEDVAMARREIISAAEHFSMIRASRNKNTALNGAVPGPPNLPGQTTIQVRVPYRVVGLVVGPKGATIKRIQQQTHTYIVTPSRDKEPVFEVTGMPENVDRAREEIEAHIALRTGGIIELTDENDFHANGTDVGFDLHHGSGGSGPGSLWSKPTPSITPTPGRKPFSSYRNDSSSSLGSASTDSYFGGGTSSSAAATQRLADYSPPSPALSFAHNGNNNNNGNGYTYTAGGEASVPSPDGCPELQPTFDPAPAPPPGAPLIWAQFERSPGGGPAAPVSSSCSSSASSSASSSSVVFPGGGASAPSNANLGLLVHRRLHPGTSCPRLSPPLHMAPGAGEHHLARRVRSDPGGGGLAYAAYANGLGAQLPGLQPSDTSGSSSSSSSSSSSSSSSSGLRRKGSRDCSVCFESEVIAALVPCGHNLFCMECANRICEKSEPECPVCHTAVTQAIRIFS
UniProt P50579: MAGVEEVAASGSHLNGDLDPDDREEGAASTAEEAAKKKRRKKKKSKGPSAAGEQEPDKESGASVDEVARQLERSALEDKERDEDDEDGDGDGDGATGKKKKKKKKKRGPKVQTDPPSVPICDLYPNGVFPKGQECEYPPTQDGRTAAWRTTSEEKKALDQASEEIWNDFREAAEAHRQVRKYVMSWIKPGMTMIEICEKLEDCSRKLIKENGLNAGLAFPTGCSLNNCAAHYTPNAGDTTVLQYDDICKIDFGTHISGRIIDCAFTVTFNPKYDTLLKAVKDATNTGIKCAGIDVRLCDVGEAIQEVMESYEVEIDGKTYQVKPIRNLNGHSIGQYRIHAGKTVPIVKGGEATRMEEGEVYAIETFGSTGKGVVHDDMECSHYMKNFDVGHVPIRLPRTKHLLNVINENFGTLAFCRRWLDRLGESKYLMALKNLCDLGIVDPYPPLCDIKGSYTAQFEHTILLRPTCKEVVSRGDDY
UniProt Q9UJ68: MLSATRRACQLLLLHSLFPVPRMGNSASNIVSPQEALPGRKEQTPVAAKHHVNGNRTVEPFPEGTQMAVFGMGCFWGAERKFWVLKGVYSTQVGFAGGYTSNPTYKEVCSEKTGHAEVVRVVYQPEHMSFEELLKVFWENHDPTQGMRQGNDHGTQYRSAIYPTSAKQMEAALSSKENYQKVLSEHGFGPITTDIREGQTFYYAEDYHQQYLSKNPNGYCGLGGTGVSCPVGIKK
UniProt Q16539, whole entry: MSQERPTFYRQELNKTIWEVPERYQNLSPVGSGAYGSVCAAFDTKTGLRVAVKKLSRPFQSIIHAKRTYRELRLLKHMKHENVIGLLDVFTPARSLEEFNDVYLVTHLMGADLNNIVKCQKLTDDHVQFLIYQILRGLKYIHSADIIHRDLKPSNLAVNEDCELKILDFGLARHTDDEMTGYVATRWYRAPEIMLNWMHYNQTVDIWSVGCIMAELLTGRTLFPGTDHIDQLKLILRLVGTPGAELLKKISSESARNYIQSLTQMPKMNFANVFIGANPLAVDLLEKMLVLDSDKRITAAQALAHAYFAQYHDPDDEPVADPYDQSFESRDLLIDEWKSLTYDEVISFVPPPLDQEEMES
UniProt Q96QZ7: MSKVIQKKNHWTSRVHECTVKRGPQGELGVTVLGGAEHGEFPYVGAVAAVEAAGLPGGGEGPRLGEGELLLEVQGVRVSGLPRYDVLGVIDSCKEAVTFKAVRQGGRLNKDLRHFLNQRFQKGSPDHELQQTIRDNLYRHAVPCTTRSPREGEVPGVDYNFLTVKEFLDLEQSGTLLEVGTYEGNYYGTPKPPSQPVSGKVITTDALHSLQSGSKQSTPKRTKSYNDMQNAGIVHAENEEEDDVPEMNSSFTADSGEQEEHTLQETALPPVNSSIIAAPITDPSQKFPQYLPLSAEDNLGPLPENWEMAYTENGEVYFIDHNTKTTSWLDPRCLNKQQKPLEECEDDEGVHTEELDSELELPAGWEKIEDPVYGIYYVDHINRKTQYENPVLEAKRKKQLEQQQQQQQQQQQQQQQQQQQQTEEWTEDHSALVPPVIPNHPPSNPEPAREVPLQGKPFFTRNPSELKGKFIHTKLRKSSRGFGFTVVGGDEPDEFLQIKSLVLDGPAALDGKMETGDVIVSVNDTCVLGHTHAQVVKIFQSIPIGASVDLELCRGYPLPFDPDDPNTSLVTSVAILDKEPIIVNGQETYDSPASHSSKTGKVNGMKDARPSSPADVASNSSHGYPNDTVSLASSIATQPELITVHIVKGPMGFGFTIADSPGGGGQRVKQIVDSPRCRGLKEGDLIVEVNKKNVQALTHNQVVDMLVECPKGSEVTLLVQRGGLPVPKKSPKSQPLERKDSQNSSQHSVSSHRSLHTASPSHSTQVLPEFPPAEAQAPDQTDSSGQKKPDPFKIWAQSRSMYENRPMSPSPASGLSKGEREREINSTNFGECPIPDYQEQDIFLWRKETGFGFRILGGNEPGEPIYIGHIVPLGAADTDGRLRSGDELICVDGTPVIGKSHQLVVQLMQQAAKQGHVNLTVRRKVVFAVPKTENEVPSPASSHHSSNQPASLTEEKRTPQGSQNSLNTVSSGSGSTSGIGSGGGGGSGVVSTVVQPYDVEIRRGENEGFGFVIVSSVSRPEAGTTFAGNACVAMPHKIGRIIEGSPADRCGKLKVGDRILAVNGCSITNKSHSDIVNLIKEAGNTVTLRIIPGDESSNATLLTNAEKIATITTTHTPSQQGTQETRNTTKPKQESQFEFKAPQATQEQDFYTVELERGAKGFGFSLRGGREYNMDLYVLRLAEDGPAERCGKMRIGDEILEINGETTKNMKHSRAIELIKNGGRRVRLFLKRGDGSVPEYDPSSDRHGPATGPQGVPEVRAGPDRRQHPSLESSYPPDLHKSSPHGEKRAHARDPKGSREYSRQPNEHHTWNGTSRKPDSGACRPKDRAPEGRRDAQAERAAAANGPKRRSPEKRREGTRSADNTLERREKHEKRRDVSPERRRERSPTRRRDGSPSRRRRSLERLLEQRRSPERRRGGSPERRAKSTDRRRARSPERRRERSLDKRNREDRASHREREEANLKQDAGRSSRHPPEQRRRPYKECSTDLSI
UniProt Q9NV56, whole entry: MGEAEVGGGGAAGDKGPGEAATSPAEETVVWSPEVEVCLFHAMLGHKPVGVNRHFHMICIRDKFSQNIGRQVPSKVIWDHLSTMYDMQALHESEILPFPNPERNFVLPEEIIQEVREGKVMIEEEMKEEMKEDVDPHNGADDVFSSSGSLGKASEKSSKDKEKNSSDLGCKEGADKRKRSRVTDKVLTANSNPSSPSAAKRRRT
UniProt Q9NQ48: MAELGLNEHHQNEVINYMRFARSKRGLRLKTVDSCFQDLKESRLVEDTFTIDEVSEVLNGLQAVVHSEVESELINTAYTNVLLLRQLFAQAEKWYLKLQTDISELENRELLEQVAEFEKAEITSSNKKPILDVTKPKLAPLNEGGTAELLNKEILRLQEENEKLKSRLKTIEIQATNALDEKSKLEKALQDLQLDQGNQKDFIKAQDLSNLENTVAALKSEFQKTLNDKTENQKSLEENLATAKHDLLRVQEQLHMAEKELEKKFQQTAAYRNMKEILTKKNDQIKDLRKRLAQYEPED
UniProt O60502: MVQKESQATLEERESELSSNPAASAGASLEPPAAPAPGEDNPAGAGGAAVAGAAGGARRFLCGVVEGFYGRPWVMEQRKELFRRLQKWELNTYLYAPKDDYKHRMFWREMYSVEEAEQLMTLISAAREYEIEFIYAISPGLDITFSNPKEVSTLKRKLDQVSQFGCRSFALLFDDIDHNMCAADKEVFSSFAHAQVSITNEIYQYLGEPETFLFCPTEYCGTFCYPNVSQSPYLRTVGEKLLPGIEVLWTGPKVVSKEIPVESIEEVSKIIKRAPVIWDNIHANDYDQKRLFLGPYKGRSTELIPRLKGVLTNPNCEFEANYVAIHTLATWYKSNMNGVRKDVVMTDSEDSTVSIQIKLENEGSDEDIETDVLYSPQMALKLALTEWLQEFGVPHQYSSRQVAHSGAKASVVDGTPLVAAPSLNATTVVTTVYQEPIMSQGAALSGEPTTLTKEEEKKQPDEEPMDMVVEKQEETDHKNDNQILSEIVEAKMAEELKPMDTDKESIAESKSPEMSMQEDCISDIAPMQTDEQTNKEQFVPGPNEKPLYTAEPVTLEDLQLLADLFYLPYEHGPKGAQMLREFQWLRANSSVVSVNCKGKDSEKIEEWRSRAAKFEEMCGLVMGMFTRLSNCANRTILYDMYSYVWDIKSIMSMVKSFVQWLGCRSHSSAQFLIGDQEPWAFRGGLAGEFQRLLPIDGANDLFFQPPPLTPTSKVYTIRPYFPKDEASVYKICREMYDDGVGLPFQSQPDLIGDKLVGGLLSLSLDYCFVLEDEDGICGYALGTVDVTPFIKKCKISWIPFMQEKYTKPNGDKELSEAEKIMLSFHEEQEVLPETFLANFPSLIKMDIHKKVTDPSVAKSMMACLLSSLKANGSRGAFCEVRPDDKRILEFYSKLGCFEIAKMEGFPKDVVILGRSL
UniProt Q96S90: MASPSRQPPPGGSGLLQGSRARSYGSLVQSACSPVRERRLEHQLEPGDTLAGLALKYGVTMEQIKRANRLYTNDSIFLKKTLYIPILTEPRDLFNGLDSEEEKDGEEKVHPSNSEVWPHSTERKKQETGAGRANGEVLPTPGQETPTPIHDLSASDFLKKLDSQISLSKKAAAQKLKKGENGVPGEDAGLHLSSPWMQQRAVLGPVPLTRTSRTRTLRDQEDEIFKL
UniProt P82909: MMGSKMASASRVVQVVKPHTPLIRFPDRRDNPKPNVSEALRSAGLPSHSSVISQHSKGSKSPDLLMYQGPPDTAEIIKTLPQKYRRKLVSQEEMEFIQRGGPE
UniProt Q9H8S9: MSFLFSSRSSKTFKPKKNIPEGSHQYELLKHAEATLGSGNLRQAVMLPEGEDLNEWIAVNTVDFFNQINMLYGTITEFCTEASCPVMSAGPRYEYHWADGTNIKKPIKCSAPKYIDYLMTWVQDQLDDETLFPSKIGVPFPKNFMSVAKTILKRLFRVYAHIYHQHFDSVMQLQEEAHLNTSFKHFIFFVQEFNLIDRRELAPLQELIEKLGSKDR
UniProt P14174: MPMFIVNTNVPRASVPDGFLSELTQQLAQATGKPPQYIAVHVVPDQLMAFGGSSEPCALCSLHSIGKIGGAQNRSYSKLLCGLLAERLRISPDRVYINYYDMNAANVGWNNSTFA
UniProt Q99797: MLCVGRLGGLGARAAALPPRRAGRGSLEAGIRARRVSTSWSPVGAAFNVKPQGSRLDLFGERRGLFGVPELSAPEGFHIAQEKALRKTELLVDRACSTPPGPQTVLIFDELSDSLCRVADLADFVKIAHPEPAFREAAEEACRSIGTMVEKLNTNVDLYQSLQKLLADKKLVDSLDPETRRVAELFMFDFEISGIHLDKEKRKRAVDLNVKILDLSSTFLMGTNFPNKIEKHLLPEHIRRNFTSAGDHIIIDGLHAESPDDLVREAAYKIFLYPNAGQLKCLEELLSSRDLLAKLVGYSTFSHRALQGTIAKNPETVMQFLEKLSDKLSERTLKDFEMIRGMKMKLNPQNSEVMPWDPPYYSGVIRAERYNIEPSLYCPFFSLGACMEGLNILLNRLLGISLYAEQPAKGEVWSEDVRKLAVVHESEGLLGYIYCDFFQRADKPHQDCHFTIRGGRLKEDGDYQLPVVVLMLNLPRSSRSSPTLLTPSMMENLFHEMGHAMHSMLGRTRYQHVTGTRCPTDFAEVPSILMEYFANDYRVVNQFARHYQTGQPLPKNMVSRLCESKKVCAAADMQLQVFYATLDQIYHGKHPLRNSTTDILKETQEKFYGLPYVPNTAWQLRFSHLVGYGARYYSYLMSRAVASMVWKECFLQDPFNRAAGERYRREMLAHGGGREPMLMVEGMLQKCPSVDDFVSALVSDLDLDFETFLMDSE
UniProt C9JLW8: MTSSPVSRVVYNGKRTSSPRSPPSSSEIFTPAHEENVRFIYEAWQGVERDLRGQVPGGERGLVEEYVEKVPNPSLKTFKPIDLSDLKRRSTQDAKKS

compound: Nc1nc2c(ncn2[C@@H]2O[C@H](COP(=O)(O)OP(=O)(O)OP(=O)(O)O)[C@@H](O)[C@H]2O)c(=O)[nH]1; assay: dose-dependent thermal stabilisation call (2D-TPP, DLPTP, 10% FDR) (binary (1 = stabilised)); higher = stabilised by the compound; conditions: system: Jurkat gel-filtered lysate; concentration range 1-500 µM

Target | dose-dependent thermal stabilisation call
MLH1 (UniProt P40692) | inactive: 0
MED15 (UniProt Q96RN5) | inactive: 0
MKRN1 (UniProt Q9UHC7) | inactive: 0
MIOS (UniProt Q9NXC5) | inactive: 0
METTL25 (UniProt Q8N6Q8) | inactive: 0
MEX3B (UniProt Q6ZN04) | inactive: 0
MTMR9 (UniProt Q96QG7) | active: 1
METAP2 (UniProt P50579) | inactive: 0
MYL6 (UniProt P60660) | inactive: 0
MSRA (UniProt Q9UJ68) | inactive: 0
MAPK14 (UniProt Q16539) | active: 1
LRRC59 (UniProt Q96AG4) | inactive: 0
MTHFD1L (UniProt Q6UB35) | inactive: 0
MAPK9 (UniProt P45984) | inactive: 0
MAPKAPK3 (UniProt Q16644) | inactive: 0
MAGI1 (UniProt Q96QZ7) | inactive: 0
MAPT (UniProt P10636) | inactive: 0
MRGBP (UniProt Q9NV56) | inactive: 0

Looked up one by one from the entries so far, 2 records:
Target | dose-dependent thermal stabilisation call
MAPK14 (UniProt Q16539) | active: 1
LRRC59 (UniProt Q96AG4) | inactive: 0

Following part:

Target | dose-dependent thermal stabilisation call
MAP4 (UniProt P27816) | inactive: 0
METTL3 (UniProt Q86U44) | inactive: 0
LZTFL1 (UniProt Q9NQ48) | inactive: 0
MGEA5 (UniProt O60502) | inactive: 0
MYNN (UniProt Q9NPC7) | inactive: 0
LYSMD1 (UniProt Q96S90) | inactive: 0
MRRF (UniProt Q96E11) | inactive: 0
MRPS36 (UniProt P82909) | inactive: 0
MOB1A (UniProt Q9H8S9) | inactive: 0
MIF (UniProt P14174) | inactive: 0
MLLT10 (UniProt P55197) | inactive: 0
MAP1LC3B2 (UniProt A6NCE7) | inactive: 0
MAGI3 (UniProt Q5TCQ9) | inactive: 0
MMADHC (UniProt Q9H3L0) | inactive: 0
MIPEP (UniProt Q99797) | active: 1
MRI1 (UniProt Q9BV20) | inactive: 0
MCM4 (UniProt P33991) | inactive: 0
MCRIP1 (UniProt C9JLW8) | inactive: 0
